Laboratory results: PMC3643979
These are yes or no findings as the source states them, for the method shown. In cells and extracts the contact can be indirect. Some entries that bind do so weakly or less than the wild type. Tags and fused reporters may be left off the sequences shown.

Sequences of proteins named here, by UniProt entry; tags and fusion partners are left off. Residues count along the entry.
UniProt Q99835, residues 28-787: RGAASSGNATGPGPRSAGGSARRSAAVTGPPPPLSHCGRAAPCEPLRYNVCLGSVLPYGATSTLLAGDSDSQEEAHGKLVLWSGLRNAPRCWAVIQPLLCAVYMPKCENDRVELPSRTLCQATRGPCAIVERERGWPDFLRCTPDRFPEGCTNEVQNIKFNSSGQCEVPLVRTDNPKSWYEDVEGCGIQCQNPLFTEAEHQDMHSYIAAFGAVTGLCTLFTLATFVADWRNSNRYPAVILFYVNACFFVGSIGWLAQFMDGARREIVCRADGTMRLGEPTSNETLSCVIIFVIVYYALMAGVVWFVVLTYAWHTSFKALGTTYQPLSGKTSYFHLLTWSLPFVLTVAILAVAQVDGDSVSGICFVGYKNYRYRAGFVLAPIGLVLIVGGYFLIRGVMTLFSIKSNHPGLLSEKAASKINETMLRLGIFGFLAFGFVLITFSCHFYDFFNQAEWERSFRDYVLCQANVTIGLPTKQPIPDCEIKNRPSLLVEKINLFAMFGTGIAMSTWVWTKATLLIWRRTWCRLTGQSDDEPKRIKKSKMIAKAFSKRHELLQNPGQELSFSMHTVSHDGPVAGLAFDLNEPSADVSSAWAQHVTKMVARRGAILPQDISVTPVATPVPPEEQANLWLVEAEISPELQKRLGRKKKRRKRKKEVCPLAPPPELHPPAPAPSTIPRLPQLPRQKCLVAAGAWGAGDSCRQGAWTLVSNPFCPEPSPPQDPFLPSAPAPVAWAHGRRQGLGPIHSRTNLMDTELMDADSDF
UniProt Q0VGT2: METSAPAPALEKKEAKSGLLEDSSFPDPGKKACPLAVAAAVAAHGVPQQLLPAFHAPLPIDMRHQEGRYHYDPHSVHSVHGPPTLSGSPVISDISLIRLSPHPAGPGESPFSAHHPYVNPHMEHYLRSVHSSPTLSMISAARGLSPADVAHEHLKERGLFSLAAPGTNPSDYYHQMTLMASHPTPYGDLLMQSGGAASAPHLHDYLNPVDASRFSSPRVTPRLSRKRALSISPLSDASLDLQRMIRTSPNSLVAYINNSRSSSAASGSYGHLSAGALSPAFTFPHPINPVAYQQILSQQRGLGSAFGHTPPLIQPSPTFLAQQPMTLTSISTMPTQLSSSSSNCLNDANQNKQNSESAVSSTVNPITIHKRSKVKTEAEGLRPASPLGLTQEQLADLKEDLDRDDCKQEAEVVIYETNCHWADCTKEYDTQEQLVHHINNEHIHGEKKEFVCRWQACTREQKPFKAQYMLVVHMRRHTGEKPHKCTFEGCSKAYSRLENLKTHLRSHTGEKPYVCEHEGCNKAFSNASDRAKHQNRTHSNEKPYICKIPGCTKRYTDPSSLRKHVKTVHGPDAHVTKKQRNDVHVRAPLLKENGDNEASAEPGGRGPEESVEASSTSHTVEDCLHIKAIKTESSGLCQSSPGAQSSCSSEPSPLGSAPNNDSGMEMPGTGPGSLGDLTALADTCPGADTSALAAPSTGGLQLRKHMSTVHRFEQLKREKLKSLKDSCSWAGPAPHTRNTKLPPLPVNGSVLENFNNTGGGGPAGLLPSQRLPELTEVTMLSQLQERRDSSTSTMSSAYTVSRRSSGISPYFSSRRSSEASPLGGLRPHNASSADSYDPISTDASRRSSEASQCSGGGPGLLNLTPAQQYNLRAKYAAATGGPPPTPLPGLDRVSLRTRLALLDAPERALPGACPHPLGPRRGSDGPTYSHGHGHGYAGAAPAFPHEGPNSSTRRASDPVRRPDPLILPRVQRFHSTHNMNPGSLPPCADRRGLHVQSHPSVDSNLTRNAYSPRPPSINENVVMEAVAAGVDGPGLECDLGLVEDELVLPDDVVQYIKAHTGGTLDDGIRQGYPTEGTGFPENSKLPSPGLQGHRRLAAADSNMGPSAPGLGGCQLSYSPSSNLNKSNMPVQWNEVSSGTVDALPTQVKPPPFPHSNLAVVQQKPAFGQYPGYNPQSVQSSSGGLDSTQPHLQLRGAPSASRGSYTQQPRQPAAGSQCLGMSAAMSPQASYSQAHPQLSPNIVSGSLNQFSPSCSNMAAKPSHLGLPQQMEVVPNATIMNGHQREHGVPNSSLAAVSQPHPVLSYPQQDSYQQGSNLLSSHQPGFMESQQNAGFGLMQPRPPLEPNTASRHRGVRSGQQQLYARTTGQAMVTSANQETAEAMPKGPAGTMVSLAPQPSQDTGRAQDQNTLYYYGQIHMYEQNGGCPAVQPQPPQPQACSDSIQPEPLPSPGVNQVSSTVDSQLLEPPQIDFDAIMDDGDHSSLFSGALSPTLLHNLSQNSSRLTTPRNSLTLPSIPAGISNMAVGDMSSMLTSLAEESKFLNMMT

T1: Flag-tagged POZ domain deletion mutant Miz1 (UniProt Q13105)
T1 sequence: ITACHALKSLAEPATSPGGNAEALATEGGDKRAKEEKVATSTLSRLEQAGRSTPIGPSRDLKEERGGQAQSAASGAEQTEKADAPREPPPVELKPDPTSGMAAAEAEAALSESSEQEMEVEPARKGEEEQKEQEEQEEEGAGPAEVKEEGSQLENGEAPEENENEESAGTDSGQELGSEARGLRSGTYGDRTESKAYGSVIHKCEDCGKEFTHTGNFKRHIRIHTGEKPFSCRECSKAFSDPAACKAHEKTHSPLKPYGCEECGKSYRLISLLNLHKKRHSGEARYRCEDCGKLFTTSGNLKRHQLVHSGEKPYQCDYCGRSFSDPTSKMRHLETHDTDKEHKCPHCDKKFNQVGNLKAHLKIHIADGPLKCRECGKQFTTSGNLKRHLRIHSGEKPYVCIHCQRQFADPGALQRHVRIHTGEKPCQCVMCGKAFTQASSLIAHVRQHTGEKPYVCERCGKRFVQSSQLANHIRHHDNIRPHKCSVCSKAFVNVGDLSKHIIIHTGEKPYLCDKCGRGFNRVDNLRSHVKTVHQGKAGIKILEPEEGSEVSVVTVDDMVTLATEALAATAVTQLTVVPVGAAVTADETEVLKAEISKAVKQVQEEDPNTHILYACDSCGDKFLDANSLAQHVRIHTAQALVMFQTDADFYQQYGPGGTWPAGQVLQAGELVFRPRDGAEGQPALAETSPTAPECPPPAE

T2: Flag-tagged Miz1 (UniProt Q13105)
T2 sequence: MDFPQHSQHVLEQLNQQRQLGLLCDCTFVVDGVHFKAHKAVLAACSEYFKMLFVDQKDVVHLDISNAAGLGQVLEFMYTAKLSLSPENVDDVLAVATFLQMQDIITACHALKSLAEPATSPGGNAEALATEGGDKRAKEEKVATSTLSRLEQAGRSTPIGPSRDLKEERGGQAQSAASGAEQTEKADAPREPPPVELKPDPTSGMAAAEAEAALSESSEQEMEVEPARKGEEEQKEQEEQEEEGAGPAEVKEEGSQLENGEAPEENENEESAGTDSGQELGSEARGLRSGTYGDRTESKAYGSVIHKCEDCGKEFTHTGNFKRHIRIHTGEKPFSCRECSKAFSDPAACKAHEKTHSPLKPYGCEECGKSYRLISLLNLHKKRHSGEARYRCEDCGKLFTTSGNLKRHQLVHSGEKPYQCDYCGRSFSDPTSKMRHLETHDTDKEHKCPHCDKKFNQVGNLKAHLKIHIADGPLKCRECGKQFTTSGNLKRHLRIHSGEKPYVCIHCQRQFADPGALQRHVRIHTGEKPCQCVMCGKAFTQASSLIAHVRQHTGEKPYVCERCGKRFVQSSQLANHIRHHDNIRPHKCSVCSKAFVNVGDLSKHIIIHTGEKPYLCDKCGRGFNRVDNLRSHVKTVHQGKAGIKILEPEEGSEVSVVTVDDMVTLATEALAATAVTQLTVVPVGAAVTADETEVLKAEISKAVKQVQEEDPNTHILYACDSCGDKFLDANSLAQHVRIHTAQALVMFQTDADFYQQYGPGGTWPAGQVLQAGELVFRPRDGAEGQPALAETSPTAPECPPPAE


Key:
Experiment in all cases: co-IP; HEK293 cells transiently co-transfected; immunoprecipitation with the Flag antibody, detection with the Myc or HA antibody
[1] = target: T1, Flag-tagged POZ domain deletion mutant Miz1
Flag-tagged Miz1 = target: T2, Flag-tagged Miz1
[2] = target: Flag-tagged Smo (full-length Smoothened) (UniProt Q99835)

| binding [1] | binding (Flag-tagged Miz1) | binding [2] | Molecule |
| --- | --- | --- | --- |
| no binding | binds | – | HA-tagged Gli2 (from UniProt Q0VGT2 1-1544) |
| – | – | binds | Myc-tagged Miz1 (full length) (protein, UniProt Q13105 1-803) MDFPQHSQHVLEQLNQQRQLGLLCDCTFVVDGVHFKAHKAVLAACSEYFKMLFVDQKDVVHLDISNAAGLGQVLEFMYTAKLSLSPENVDDVLAVATFLQMQDIITACHALKSLAEPATSPGGNAEALATEGGDKRAKEEKVATSTLSRLEQAGRSTPIGPSRDLKEERGGQAQSAASGAEQTEKADAPREPPPVELKPDPTSGMAAAEAEAALSESSEQEMEVEPARKGEEEQKEQEEQEEEGAGPAEVKEEGSQLENGEAPEENENEESAGTDSGQELGSEARGLRSGTYGDRTESKAYGSVIHKCEDCGKEFTHTGNFKRHIRIHTGEKPFSCRECSKAFSDPAACKAHEKTHSPLKPYGCEECGKSYRLISLLNLHKKRHSGEARYRCEDCGKLFTTSGNLKRHQLVHSGEKPYQCDYCGRSFSDPTSKMRHLETHDTDKEHKCPHCDKKFNQVGNLKAHLKIHIADGPLKCRECGKQFTTSGNLKRHLRIHSGEKPYVCIHCQRQFADPGALQRHVRIHTGEKPCQCVMCGKAFTQASSLIAHVRQHTGEKPYVCERCGKRFVQSSQLANHIRHHDNIRPHKCSVCSKAFVNVGDLSKHIIIHTGEKPYLCDKCGRGFNRVDNLRSHVKTVHQGKAGIKILEPEEGSEVSVVTVDDMVTLATEALAATAVTQLTVVPVGAAVTADETEVLKAEISKAVKQVQEEDPNTHILYACDSCGDKFLDANSLAQHVRIHTAQALVMFQTDADFYQQYGPGGTWPAGQVLQAGELVFRPRDGAEGQPALAETSPTAPECPPPAE |
| – | – | binds | Myc-tagged POZ domain deletion mutant Miz1 (domain or fragment, UniProt Q13105 105-803) ITACHALKSLAEPATSPGGNAEALATEGGDKRAKEEKVATSTLSRLEQAGRSTPIGPSRDLKEERGGQAQSAASGAEQTEKADAPREPPPVELKPDPTSGMAAAEAEAALSESSEQEMEVEPARKGEEEQKEQEEQEEEGAGPAEVKEEGSQLENGEAPEENENEESAGTDSGQELGSEARGLRSGTYGDRTESKAYGSVIHKCEDCGKEFTHTGNFKRHIRIHTGEKPFSCRECSKAFSDPAACKAHEKTHSPLKPYGCEECGKSYRLISLLNLHKKRHSGEARYRCEDCGKLFTTSGNLKRHQLVHSGEKPYQCDYCGRSFSDPTSKMRHLETHDTDKEHKCPHCDKKFNQVGNLKAHLKIHIADGPLKCRECGKQFTTSGNLKRHLRIHSGEKPYVCIHCQRQFADPGALQRHVRIHTGEKPCQCVMCGKAFTQASSLIAHVRQHTGEKPYVCERCGKRFVQSSQLANHIRHHDNIRPHKCSVCSKAFVNVGDLSKHIIIHTGEKPYLCDKCGRGFNRVDNLRSHVKTVHQGKAGIKILEPEEGSEVSVVTVDDMVTLATEALAATAVTQLTVVPVGAAVTADETEVLKAEISKAVKQVQEEDPNTHILYACDSCGDKFLDANSLAQHVRIHTAQALVMFQTDADFYQQYGPGGTWPAGQVLQAGELVFRPRDGAEGQPALAETSPTAPECPPPAE |
